Source: patent publication US20100143313A1, “HOMOGENEOUS DIFFERENTIATION OF HEPATOCYTE-LIKE CELLS FROM EMBRYONIC STEM CELLS” (THE GENERAL HOSPITAL CORPORATION, priority 2008, published 2010)
“And” between values parts separate entries of the source, which are not always exact repeats. Equal entries are not always repeated. At least one read-out could not be matched to a standard name with certainty.

Test system: albumin promoter-driven GFP expression in ES-derived endoderm (ESDE) cells
Assay: Screening of agonists for albumin promoter-driven GFP expression in ES-derived endoderm (ESDE) cells, flow cytometry
Assay type: cell-based, murine
Settings: agonist d14-d20, 2% DMSO, 1 μM Azacytidine, 1 μM Retinoic Acid, 100 μM SNAP, 1 μM A23187, 1 nM vasopressin, 200 μM IBMX, 2 mM phenobarbital, 10 mM nicotinamide, 0.1 μM PGE2; for Cell fraction of day 30 ES-derived cells positive for albumin promoter-driven GFP expression, High Glucose: high glucose DMEM; for Cell fraction of day 30 ES-derived cells positive for albumin promoter-driven GFP expression, Low Glucose: low glucose DMEM
Protocol: A transgenic ES cell for enhanced green fluorescence protein (GFP) driven by the albumin promoter was used or the purpose of quickly screening different stimulants for hepatic differentiation. After a total of 30 days of differentiation, the various agonists were evaluated for their ability to induce ES-derived endoderm (ESDE) to express the albumin gene. When the ESDE cells were cultured in high glucose conditions, none of the agonists tested were able to increase cell population fraction positive for GFP expression over 10% (Table 1):
Additionally, for the purpose of quickly screening different stimulants for hepatic differentiation, a transgenic ES cell for enhanced green fluorescence protein (GFP) driven by the albumin promoter was used for these preliminary studies. The transgenic murine J1 cell line was obtained from the National Cancer Center Research Institute (Tokyo, Japan). The murine ES cell line D3 (ATCC, Manassas, Va.) was also used to assess the differentiation of ES cells into endoderm and hepatic lineage cells. Undifferentiated ES cells were cultured in Knockout DMEM (Gibco), supplemented with 15% replacement serum, 4 mM L-glutamine (Gibco), 100 U/mL penicillin (Gibco), 100 U/ml streptomycin (Gibco), 10 μg/mL gentamycin (Gibco), 1000 units/mL Leukemia Inhibitory Factor (LIF; Chemicon International, Temecula, Calif.), and 0.1 mM 2-mercaptoethanol (Gibco) on 0.1% gelatin-coated T-75 tissue culture flasks. Culture medium was replaced every day and cells were passaged at dilutions ranging from 1:5 to 1:20 at least once a week. Cells were cultured at 37° C. and in a 5% CO2 incubator.
To isolate the ES-derived cells in co-culture, the ES cells cultured on top of collagen sandwiched hepatocytes were incubated with dispase (1 mg/mL) (Gibco) for 30-60 min at 37° C. After incubation, the ES-derived cells were detached by gentle pipetting. The collagen-sandwiched hepatocytes remained at the bottom of the dish, thus allowing separation of the ES-derived cells from the primary hepatocytes. The isolated ES-derived cells were replated (day 10) on collagen gel coated 35-mm dishes at a density of 400,000 ES-derived cells per dish and cultured in high glucose DMEM supplemented with 10% FBS, 100 ng/mL oncostatin-M (Sigma), 0.2 μM dexamethasone (Sigma), and insulin/transferrin/selenious acid (5 μg/mL, 5 μg/mL, 5 ng/mL, respectively) (BD Biosciences, San Jose, Calif.). The replated cells were allowed to recover for four days before induction of hepatocyte differentiation. […]
Alternatively, Cells were detached from the collagen surface using 10 U/ml collagenase and 1 U/ml dispase in serum-free DMEM for 30 minutes. […] Collected cells were analyzed by flow cytometry (Epics Altra; Becton Dickinson). FACS data was analyzed using CellQuest software. […]

`CNc1ccc2oc(C[C@H]3O[C@@]4(CC[C@H]3C)O[C@H]([C@H](C)C(=O)c3ccc[nH]3)[C@H](C)C[C@H]4C)nc2c1C(=O)O` [A23187] was tested. Which “Cell fraction of day 30 ES-derived cells positive for albumin promoter-driven GFP expression, High Glucose” value did it give?
The value was 7.4%.

And the “Cell fraction of day 30 ES-derived cells positive for albumin promoter-driven GFP expression, Low Glucose” value?
The value was ~40% and 41%.

Which “Cell fraction of day 30 ES-derived cells positive for albumin promoter-driven GFP expression, High Glucose” value does the source give for `CCC1(c2ccccc2)C(=O)NC(=O)NC1=O` [phenobarbital] here?
The value was 4%.

What about the “Cell fraction of day 30 ES-derived cells positive for albumin promoter-driven GFP expression, Low Glucose” value of the same compound?
The value was ~44%.
